# Measurements taken from patent US20120142601A1, “Modified Peptides and Uses Thereof” (MUSC Foundation for Research Development, priority 2009, published 2012).
# Not every detail of the peptide structures is certain; ends, links or a residue may be inferred. Non-standard residues stand in square brackets, D forms with d. Residues, ends and D or L forms follow the SMILES beside them. *: point of attachment. Tle = CC(C)(C)[C@H](N)C(=O)O; X1 = C[C@@H](CCCCCN)C(=O)*
# Experiment: d-amphetamine induced hyperactivity and spontaneous locomotor activity
# Assay type: in vivo, rats
compound,measurement,setting,value
CC(C)C[C@H](NC(=O)[C@@H](NC(=O)[C@H](Cc1ccc(O)cc1)NC(=O)[C@@H]1CCCN1C(=O)[C@H](CCCNC(=N)N)NC(=O)[C@@H](C)CCCCCN)C(C)(C)C)C(=O)O [ABS-201] (X1-RPY[Tle]L-OH),spontaneous locomotor activity during the drug phase,"all dose groups, versus saline",significantly lower than saline
same,d-amphetamine induced hyperlocomotion,doses of 3 mg/kg and 10 mg/kg,significantly reduced hyperlocomotion
same,effect of repeated daily dosing on attenuation of d-amphetamine induced hyperlocomotion,repeated daily dosing,no effect
